Reference: publication PMC8129794
Read-outs that look alike come from different tables or passages of the source. These are yes or no findings as the source states them, for the method shown. Binding seen in cells or lysates may run through a third protein. A yes stands for co-enrichment or nearness to the bait. Other partners may have been found. Sequences can lack the tags named with a protein. Values belong to the molecule of their own block, whether it stands above or below them.

The chains behind the UniProt entries cited, without tags or fusion partners.
UniProt O60610: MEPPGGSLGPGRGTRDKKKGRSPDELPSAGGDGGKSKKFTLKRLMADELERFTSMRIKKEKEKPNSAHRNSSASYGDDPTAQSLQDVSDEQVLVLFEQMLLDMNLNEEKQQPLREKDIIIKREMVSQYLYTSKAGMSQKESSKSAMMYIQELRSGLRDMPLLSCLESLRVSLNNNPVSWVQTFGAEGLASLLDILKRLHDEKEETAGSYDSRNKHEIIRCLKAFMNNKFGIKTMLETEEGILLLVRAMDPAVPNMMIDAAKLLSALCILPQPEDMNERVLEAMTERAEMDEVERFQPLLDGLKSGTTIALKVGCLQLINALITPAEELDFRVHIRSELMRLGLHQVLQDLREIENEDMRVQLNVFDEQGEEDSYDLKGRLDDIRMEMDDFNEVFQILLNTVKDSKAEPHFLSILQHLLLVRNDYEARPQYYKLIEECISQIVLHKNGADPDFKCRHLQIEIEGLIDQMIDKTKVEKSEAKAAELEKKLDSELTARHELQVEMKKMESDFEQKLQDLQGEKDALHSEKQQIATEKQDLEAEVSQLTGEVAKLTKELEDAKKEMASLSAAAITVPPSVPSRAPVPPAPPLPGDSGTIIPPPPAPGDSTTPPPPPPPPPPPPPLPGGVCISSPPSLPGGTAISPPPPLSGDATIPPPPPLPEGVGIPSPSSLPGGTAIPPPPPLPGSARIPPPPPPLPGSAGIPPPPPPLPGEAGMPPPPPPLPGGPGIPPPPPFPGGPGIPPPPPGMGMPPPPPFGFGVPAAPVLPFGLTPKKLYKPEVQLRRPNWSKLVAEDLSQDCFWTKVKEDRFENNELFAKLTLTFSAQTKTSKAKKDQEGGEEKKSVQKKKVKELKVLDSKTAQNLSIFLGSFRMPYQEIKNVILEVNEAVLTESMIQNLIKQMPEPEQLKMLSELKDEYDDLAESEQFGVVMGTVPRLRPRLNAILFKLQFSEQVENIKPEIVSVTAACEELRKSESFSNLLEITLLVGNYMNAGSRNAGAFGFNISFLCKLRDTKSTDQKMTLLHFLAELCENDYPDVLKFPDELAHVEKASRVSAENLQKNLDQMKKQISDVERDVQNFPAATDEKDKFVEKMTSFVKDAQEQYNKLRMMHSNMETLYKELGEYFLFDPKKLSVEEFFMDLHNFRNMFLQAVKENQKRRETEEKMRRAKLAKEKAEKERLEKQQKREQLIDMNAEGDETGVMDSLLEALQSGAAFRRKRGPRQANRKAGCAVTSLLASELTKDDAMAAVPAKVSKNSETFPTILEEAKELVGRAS
UniProt Q93034: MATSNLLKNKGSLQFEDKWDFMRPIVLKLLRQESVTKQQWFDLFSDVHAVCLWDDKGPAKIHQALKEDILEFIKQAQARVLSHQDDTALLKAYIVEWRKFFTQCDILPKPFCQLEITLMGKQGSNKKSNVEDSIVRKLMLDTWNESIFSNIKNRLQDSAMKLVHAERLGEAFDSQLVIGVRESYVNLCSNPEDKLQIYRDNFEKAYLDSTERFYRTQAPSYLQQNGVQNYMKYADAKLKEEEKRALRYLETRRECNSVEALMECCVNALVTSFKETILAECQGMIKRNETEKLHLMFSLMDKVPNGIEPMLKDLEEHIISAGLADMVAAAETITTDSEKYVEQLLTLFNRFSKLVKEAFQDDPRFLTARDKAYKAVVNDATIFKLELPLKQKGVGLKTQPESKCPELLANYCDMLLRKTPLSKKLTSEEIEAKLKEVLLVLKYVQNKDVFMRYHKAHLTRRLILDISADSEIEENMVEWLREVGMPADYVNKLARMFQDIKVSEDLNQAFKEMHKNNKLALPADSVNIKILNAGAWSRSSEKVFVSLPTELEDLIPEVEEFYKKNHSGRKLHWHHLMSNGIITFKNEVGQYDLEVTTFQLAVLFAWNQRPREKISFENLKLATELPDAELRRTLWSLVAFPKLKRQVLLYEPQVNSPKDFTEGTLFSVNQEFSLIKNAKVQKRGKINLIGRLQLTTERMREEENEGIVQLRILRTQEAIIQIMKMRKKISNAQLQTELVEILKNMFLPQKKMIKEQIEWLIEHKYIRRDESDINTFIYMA
UniProt Q15370: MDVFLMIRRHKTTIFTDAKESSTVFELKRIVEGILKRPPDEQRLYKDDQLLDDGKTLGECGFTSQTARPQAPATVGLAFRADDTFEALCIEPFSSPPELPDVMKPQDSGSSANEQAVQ
UniProt Q9UHB6: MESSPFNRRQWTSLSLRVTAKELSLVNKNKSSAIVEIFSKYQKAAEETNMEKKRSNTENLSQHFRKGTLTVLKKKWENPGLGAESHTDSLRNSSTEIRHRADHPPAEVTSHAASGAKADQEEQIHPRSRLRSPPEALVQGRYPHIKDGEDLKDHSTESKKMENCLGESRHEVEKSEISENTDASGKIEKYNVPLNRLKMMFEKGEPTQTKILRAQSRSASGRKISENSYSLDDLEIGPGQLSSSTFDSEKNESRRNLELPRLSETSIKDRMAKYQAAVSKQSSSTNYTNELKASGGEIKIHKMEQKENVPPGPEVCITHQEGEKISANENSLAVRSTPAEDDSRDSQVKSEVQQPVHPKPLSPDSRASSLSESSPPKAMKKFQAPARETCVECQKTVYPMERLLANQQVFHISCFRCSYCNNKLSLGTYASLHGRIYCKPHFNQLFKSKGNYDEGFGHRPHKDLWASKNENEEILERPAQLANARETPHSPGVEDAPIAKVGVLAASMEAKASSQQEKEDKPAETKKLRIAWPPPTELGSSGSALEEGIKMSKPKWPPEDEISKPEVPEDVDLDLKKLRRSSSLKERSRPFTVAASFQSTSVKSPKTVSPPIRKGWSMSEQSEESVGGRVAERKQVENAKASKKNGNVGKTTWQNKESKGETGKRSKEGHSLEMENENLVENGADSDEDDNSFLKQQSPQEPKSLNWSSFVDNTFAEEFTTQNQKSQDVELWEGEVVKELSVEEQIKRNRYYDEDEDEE
UniProt Q9UBF6: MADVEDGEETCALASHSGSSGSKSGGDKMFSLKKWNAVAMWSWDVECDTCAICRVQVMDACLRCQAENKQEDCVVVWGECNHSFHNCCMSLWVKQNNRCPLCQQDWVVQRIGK

How the values were obtained:
[1] = molecular target: T1, FLAG-Rab40b-4A (UniProt Q12829); assay: affinity purification with mass spectrometry; FLAG beads on lysates of MDA-MB-231 expressing WT FLAG-Rab40b or FLAG-Rab40b-4A; two independent experiments; hits over IgG control
T1 sequence: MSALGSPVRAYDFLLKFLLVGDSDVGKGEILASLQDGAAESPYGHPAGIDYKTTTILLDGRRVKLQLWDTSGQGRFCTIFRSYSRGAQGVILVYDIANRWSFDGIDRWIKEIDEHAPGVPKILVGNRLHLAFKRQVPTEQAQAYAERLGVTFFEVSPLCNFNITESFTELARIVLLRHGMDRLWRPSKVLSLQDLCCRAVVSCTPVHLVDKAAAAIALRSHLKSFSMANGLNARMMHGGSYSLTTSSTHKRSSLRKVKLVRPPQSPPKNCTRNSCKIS

[2] = molecular target: T2, FLAG-Rab40b (UniProt Q12829); assay: affinity purification with mass spectrometry; anti-FLAG antibody beads (control IgG beads) on Triton X-100 lysate of MDA-MB-231 stably expressing FLAG-Rab40b, in the presence of GDP or GTPgammaS; PBS, 1% Triton X-100
T2 sequence: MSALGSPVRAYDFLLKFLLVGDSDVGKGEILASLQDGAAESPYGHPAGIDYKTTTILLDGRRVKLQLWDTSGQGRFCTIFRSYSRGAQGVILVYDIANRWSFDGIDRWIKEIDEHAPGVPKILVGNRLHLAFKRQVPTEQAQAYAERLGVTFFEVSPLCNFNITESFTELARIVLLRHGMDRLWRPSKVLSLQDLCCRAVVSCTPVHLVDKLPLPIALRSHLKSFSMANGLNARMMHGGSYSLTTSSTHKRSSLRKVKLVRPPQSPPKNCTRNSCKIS

[3] = molecular target: T2, FLAG-Rab40b; assay: affinity purification with mass spectrometry; FLAG beads on lysates of MDA-MB-231 expressing WT FLAG-Rab40b or FLAG-Rab40b-4A; two independent experiments; hits over IgG control
[4] = molecular target: T1, FLAG-Rab40b-4A; assay: as above; remark: listed apart in the source

binding [1]: binds
Molecule: DIAPH1 (from UniProt O60610 1-1272)

binding [2]: binds | binding [3]: binds
Molecule: Cullin5 (from UniProt Q93034 1-780)

binding [2]: binds | binding [3]: binds
Molecule: Elongin B (from UniProt Q15370 1-118)

binding [1]: binds
Molecule: EPLIN (epithelial protein lost in neoplasia) (from UniProt Q9UHB6 1-759)

binding [3]: binds
Molecule: Rbx2 (from UniProt Q9UBF6 1-113)

binding [4]: binds
B1: ARHGAP42 (protein, UniProt A6NI28 1-874)
chain: MGLPTLEFSDSYLDSPDFRERLQCHEIELERTNKFIKELIKDGSLLIGALRNLSMAVQKFSQSLQDFQFECIGDAETDDEISIAQSLKEFARLLIAVEEERRRLIQNANDVLIAPLEKFRKEQIGAAKDGKKKFDKESEKYYSILEKHLNLSAKKKESHLQEADTQIDREHQNFYEASLEYVFKIQEVQEKKKFEFVEPLLSFLQGLFTFYHEGYELAQEFAPYKQQLQFNLQNTRNNFESTRQEVERLMQRMKSANQDYRPPSQWTMEGYLYVQEKRPLGFTWIKHYCTYDKGSKTFTMSVSEMKSSGKMNGLVTSSPEMFKLKSCIRRKTDSIDKRFCFDIEVVERHGIITLQAFSEANRKLWLEAMDGKEPIYTLPAIISKKEEMYLNEAGFNFVRKCIQAVETRGITILGLYRIGGVNSKVQKLMNTTFSPKSPPDIDIDIELWDNKTITSGLKNYLRCLAEPLMTYKLHKDFIIAVKSDDQNYRVEAVHALVHKLPEKNREMLDILIKHLVKVSLHSQQNLMTVSNLGVIFGPTLMRAQEETVAAMMNIKFQNIVVEILIEHYEKIFHTAPDPSIPLPQPQSRSGSRRTRAICLSTGSRKPRGRYTPCLAEPDSDSYSSSPDSTPMGSIESLSSHSSEQNSTTKSASCQPREKSGGIPWIATPSSSNGQKSLGLWTTSPESSSREDATKTDAESDCQSVASVTSPGDVSPPIDLVKKEPYGLSGLKRASASSLRSISAAEGNKSYSGSIQSLTSVGSKETPKASPNPDLPPKMCRRLRLDTASSNGYQRPGSVVAAKAQLFENVGSPKPVSSGRQAKAMYSCKAEHSHELSFPQGAIFSNVYPSVEPGWLKATYEGKTGLVPENYVVFL

binding [4]: binds
B2: ARHGAP19 (protein, UniProt Q14CB8 1-494)
chain: MATEAQSEGEVPARESGRSDAICSFVICNDSSLRGQPIIFNPDFFVEKLRHEKPEIFTELVVSNITRLIDLPGTELAQLMGEVDLKLPGGAGPASGFFRSLMSLKRKEKGVIFGSPLTEEGIAQIYQLIEYLHKNLRVEGLFRVPGNSVRQQILRDALNNGTDIDLESGEFHSNDVATLLKMFLGELPEPLLTHKHFNAHLKIADLMQFDDKGNKTNIPDKDRQIEALQLLFLILPPPNRNLLKLLLDLLYQTAKKQDKNKMSAYNLALMFAPHVLWPKNVTANDLQENITKLNSGMAFMIKHSQKLFKAPAYIRECARLHYLGSRTQASKDDLDLIASCHTKSFQLAKSQKRNRVDSCPHQEETQHHTEEALRELFQHVHDMPESAKKKQLIRQFNKQSLTQTPGREPSTSQVQKRARSRSFSGLIKRKVLGNQMMSEKKKKNPTPESVAIGELKGTSKENRNLLFSGSPAVTMTPTRLKWSEGKKEGKKGFL
